From US4504469A, “Vasotocin derivatives” (priority 1982, dated 1985)
Part of at least one peptide drawing is inferred or uncertain, most often the ends. Where a SMILES comes first, the peptide text is derived from it. Bridges are numbered along the chain shown (N, C = ends). [ ]: non-standard residue; d: D form. Orn = NCCC[C@H](N)C(=O)O; Mpa = O=C(O)CCS

Experiments:
[1] = test system: rat uterus in vivo; test: In vivo inhibition of oxytocin-induced uterus contractions in rats, compared with Antocin; conditions: anaesthetized rats, oxytocin infusion i.v., antagonist 0.8-8.0 μg/100 g i.v.; Antocin given the value 1
Procedure: Sprague Dawley rats (250 g) in natural estrous were anaesthetized with Inactin (0.5 mg/100 g body weight i.p.). Myometrial activity was recorded by means of a catheter fixed in the uterine cavity and filled with modified Locke's solution. The catheter was connected to a Statham P23d transducer, and contractions were recorded on a Grass polygraph (model 7d). Oxytocin was infused intravenously (0.05 μg/min/100 g body weight). When a regular contraction pattern had been obtained, the antagonist (0.8-8.0 μg/100 g body weight) was administered intravenously in a volume of 0.2 ml. The recorded curve was integrated over 15 min intervals immediately before and after injection of the antagonist. The inhibition of the increase in the magnitude of the uterus contractions caused by oxytocin infusion were compared with the inhibition of the Antocin which was given the value 1.

[2] = Pressor effect (effect on the blood pressure); set-up: reference not given here
[3] = Antidiuretic effect (AD); set-up: unit not given here

Row | SMILES | Uterus in vivo, compared with Antocin [1] | Pressor (effect on the blood pressure) [2] | AD (antidiuretic effect) [3]
1 | CCOc1ccc(C[C@@H]2NC(=O)CCSSC[C@@H](C(=O)N3CCC[C@H]3C(=O)N[C@@H](CCCNC(=N)N)C(=O)NCC(N)=O)NC(=O)[C@H](CC(N)=O)NC(=O)[C@H]([C@@H](C)O)NC(=O)[C@H]([C@@H](C)CC)NC2=O)cc1 [Example 5, 1-β-mercaptopropionic acid-2-(4-ethoxy)-phenyl alanine-4-treonine-8-arginine vasotocin] ([Mpa]Y(Et)ITNCPRG-NH2; disulfide 1-6) | 4 | 13.6 | 3.2
2 | CCOc1ccc(C[C@H]2NC(=O)CCSSC[C@@H](C(=O)N3CCC[C@H]3C(=O)N[C@@H](CCCN)C(=O)NCC(N)=O)NC(=O)[C@H](CC(N)=O)NC(=O)[C@H]([C@@H](C)O)NC(=O)[C@H]([C@@H](C)CC)NC2=O)cc1 [Example 11, 1-β-mercaptopropionic acid-2-(4-ethoxy)-D-phenyl alanine-4-treonine-8-ornithine vasotocin] ([Mpa][dY](Et)ITNCP[Orn]G-NH2; disulfide 1-6) | 4.0 | 2.4 | 2.5
3 | CCOc1ccc(C[C@H]2NC(=O)CCSSC[C@@H](C(=O)N3CCC[C@H]3C(=O)N[C@@H](CCCNC(=N)N)C(=O)NCC(N)=O)NC(=O)[C@H](CC(N)=O)NC(=O)[C@H](CCC(N)=O)NC(=O)[C@H]([C@@H](C)CC)NC2=O)cc1 [Example 2, 1-β-mercaptopropionic acid-2-(4-ethoxy)-D-phenyl alanine-8-arginine vasotocin] ([Mpa][dY](Et)IQNCPRG-NH2; disulfide 1-6) | 9.4 | 1.8 | 1.0
